Measurements published in PubChem BioAssay AID540276 (National Center for Advancing Translational Sciences (NCATS), 2011).
Hit rate of the full screen: of about 300,000 compounds, about 5,400 (1.8%) were called active. This list was built around the results that the source calls inconclusive (neither active nor inactive); the mix of calls is not that of the screen. Calls follow the shape of the full dose curve; tested in HEK293 cells. A potency beside an inconclusive call is a rough fit, not a confirmed value.

experiment: qHTS for inhibitors of binding or entry into cells for Marburg Virus; details: Marburg virus pseudotyped entry inhibition, cell reporter; activity change, negative = inhibition: at 37.8 µM (top of the series) unless noted
% is scaled to controls: 0 for no effect and ±100 for the full control effect; potency is read from the fitted curve at half-maximal effect.

| Structure (SMILES) | Potency | activity change, negative = inhibition |
| --- | --- | --- |
| OC(COc1ccc(F)cc1Cl)CN1CCc2ccccc2C1 (stereo not drawn) | inconclusive: 15.8 µM [inhibitor, single point] | – |
| CC(=O)c1c(C)oc2ccc(N(C(=O)c3ccncc3)S(=O)(=O)c3ccc(F)cc3C)cc12 | inconclusive: 12.6 µM [inhibitor, partial curve, poor fit] | – |
| CCOc1cc(/C=C2\SC(=O)N=C2N)ccc1O | inconclusive: 14.1 µM [inhibitor, single point] | – |
| O=C(NC(=S)Nc1ncccn1)c1ccc(F)cc1 | inconclusive: 10 µM [activator, single point] | – |
| Cc1ccccc1NC(=S)NCCSc1ccc(Cl)cc1 | inconclusive: 35.5 µM [inhibitor, single point] | – |
| CCn1cc(C(=O)NCC(C)C)c(=O)c2cc(F)c(N3CCN(C)CC3)cc21 | inconclusive: 35.5 µM [inhibitor, single point] | – |
| O=C(N/N=C/c1cn(-c2cccs2)nc1-c1ccccc1)c1ccccc1Cl | inconclusive: 3.16 µM [inhibitor, single point] | – |
| Cc1ccc2ncc(C(=O)Nc3cccc(C(F)(F)F)c3)c(=O)n2c1 | – | inactive: 4.56% [at 46.1 µM] |
| CN(C)/C=N/c1c(C(=O)NCc2ccccc2)nnn1Cc1ccccc1 | – | inactive: 13.2% |
| Cc1cc2nnc(SCC(=O)NCc3cccs3)n2c2ccccc12 | inconclusive: 0.13 µM [inhibitor, full curve, poor fit] | – |
| O=C(CSc1nc2ccc(Cl)cc2[nH]1)NCCc1ccc(Cl)cc1 | – | inactive: -18.8% |
| COc1ccc(NS(=O)(=O)c2ccc(C(=O)N3CCCCCC3)cc2)cc1 | inconclusive: 15.8 µM [inhibitor, single point] | – |
| COc1ccc(C2NCc3ccc4c(c3-n3cccc32)OCO4)cc1O (stereo not drawn) | active: 0.631 µM | – |
| O=C(N/N=C\c1cccnc1)c1cc(-c2ccccc2)nc2c(Cl)cccc12 | inconclusive: 11.2 µM [inhibitor, partial curve, poor fit] | – |
| C/C=C/c1ccc(OCC(=O)Nc2cc(S(=O)(=O)N3CCOCC3)ccc2N2CCCC2)c(OC)c1 | inconclusive: 35.5 µM [inhibitor, single point] | – |
| Nc1c(N(CCC2=CCCCC2)C(=O)Cc2ccccc2F)c(=O)[nH]c(=O)n1Cc1ccccc1 | inconclusive: 12.6 µM [inhibitor, single point] | – |
| O=C(O)CCNc1cc(N2CCN(C(=O)c3ccco3)CC2)c2noc3c2c1C(=O)c1ccccc1-3 | inconclusive: 11.2 µM [inhibitor, partial curve, poor fit] | – |
| Cc1cccc(NC(=S)NNC(=O)c2csc(C(C)C)c2)c1 | inconclusive: 2.91 µM [activator, full curve, poor fit] | – |
| c1ccc(CSc2nnc(-c3ccco3)n2Cc2ccccc2)cc1 | inconclusive: 35.5 µM [inhibitor, single point] | – |
| N#Cc1c(SCC(=O)O)nc(-c2ccccc2)c2c1CCCC2 | – | inactive: 9.77% |
| Cc1nc(NC(=O)CSc2ccccc2N)sc1C | inconclusive: 32.6 µM [inhibitor, single point] | – |
| COc1ccc(CNC(=O)c2sc(=S)n(-c3ccc(OC)cc3)c2N)cc1 | – | inactive: -1.08% |
| O=[N+]([O-])c1cc(S(=O)(=O)C(F)(F)F)ccc1Sc1nc2ccccc2[nH]1 | inconclusive: 35.5 µM [inhibitor, single point] | – |

| Structure (SMILES) | Potency | activity change, negative = inhibition |
| --- | --- | --- |
| Cc1cccc(N(Cc2ccc(Cl)cc2)S(C)(=O)=O)c1 | inconclusive: 10 µM [inhibitor, partial curve, poor fit] | – |
| COc1ccc(NC(=O)CC2C(=O)N(C)C(=S)N2Cc2ccc3c(c2)OCO3)cc1 (stereo not drawn) | active: 11.2 µM | – |
| CCN(CC)S(=O)(=O)c1ccc(N2CCN(S(=O)(=O)c3ccccc3C#N)CC2)nc1 | inconclusive: 6.31 µM [inhibitor, partial curve, poor fit] | – |
| CCOc1ncccc1C(=O)OCc1ccc(C#N)cc1 | – | inactive: 18.5% |
| COc1ccccc1Oc1ccc2c(c1)C(=O)N(c1ccc(O)cc1)C2=O | inconclusive: 5.62 µM [activator, single point] | – |
| O=C(Nc1ccc(NC(=S)NC(=O)c2cccs2)cc1)c1ccco1 | inconclusive: 3.55 µM [inhibitor, partial curve, poor fit] | – |
| CC(=O)Nc1cc(C(=O)NCCN2CCN(Cc3ccccc3)CC2)ccc1Sc1ccc(C)cc1 | – | inconclusive: 1.75% [activator] [at 46.1 µM] |
| CC(C)CNc1ncnc2c1cnn2Cc1ccccc1Cl | inconclusive: 12.6 µM [inhibitor, partial curve] | – |
| O=[N+]([O-])c1cc(S(=O)(=O)N2CCCC2)ccc1O | inconclusive: 0.224 µM [activator, full curve, poor fit] | – |
| Cc1ccccc1Cn1c(=N)n(CC(=O)c2ccc([N+](=O)[O-])cc2)c2ccccc21 | inconclusive: 35.5 µM [inhibitor, single point] | – |
| O=C(c1ccco1)N(CCCN1CCOCC1)c1nc(-c2ccc(F)cc2)cs1 | inconclusive: 20.6 µM [inhibitor, partial curve, poor fit] | – |
| CC(=O)c1cccc(NS(=O)(=O)c2ccc(C(=O)Nc3ccccc3)cc2)c1 | inconclusive: 3.16 µM [inhibitor, full curve, poor fit] | – |
| O=C(N/N=C/c1sc(N2CCCCC2)nc1-c1cccs1)C1CC1 | – | inactive: -33.1% |
| C/C(=N/NC(=O)CNC(=O)C1COc2ccccc2O1)c1ccc([N+](=O)[O-])cc1 (stereo not drawn) | inconclusive: 15.8 µM [inhibitor, single point] | – |
| O=C1CCCN1c1ccc(S(=O)(=O)NCCc2ccc(Cl)cc2)cc1 | – | inactive: 1.09% |
| COc1ccc(Br)cc1C(=O)Nc1ccc(O)cc1 | – | inactive: 25.3% |
| CCOc1ccccc1N1CCN(C(=O)c2ccc(OCC(=O)N3CCOCC3)c(OC)c2)CC1 | – | inactive: 3.1% [at 46.1 µM] |
| CCn1c(SCC(=O)Nc2ccc(C)cc2)nc2sc3c(c2c1=O)CCN(C)C3 | – | inactive: 5.9% [at 46.1 µM] |
| COc1cccc(-n2c(SCC(=O)Nc3sc4c(c3C(N)=O)CCC4)nc3ccccc3c2=O)c1 | inconclusive: 4.61 µM [inhibitor, single point] | – |
| Cc1ccccc1NS(=O)(=O)c1cc(C(=O)Nc2cccnc2)ccc1C | inconclusive: 35.5 µM [inhibitor, single point] | – |
| C(=N/Nc1nccs1)/c1cccnc1 | inconclusive: 12.6 µM [activator, single point] | – |
| COc1ccc(C2=NN(Cc3ccccc3)C3C(=O)NC(=O)C23)cc1 (stereo not drawn) | inconclusive: 10 µM [activator, partial curve, poor fit] | – |
| CCOc1ccc(-c2nnc3ccc(SCC(=O)Nc4nc5ccccc5s4)nn23)cc1 | inconclusive: 29.1 µM [inhibitor, single point] | – |

Reformatted with each value named: 4 of the compounds above.
O=C(N/N=C/c1cn(-c2cccs2)nc1-c1ccccc1)c1ccccc1Cl
  Potency: inconclusive: 3.16 µM [inhibitor, single point]
COc1ccc(C2NCc3ccc4c(c3-n3cccc32)OCO4)cc1O (stereo not drawn)
  Potency: active: 0.631 µM
COc1ccc(CNC(=O)c2sc(=S)n(-c3ccc(OC)cc3)c2N)cc1
  activity change, negative = inhibition: inactive: -1.08%
C/C(=N/NC(=O)CNC(=O)C1COc2ccccc2O1)c1ccc([N+](=O)[O-])cc1 (stereo not drawn)
  Potency: inconclusive: 15.8 µM [inhibitor, single point]

Going on with the list:

| Structure (SMILES) | Potency | activity change, negative = inhibition |
| --- | --- | --- |
| COc1ccc(/C=N/NC(=O)NC23CC4CC(CC(C4)C2)C3)c(OC)c1 | inconclusive: 0.794 µM [inhibitor, full curve, poor fit] | – |
| COC(=O)CNC(c1ccccc1Cl)c1cc(Br)ccc1NS(=O)(=O)c1ccc(C)cc1 (stereo not drawn) | inconclusive: 15.8 µM [inhibitor, single point] | – |
| CCOc1ccc(N(C(=O)c2cnccn2)C(C(=O)NC2CCCCC2)c2ccc(O)cc2)cc1 (stereo not drawn) | inconclusive: 0.316 µM [inhibitor, full curve, poor fit] | – |
| Cc1oc(-c2ccccc2F)nc1CSCC(=O)NC1CCC(C)CC1 (stereo not drawn) | – | inactive: -21.2% [at 46.1 µM] |
| CCOC(=O)C=C1CN(Cc2ccc(OC)cc2)S(=O)(=O)c2ccccc21 | inconclusive: 0.0025 µM [inhibitor, full curve, poor fit] | – |
| CCOC(=O)C1C(=O)CC(=O)CC1CC(C)SCC (stereo not drawn) | – | inactive: 15.7% |
| CCOC(=O)c1ccc(N=c2sc(C(=O)OC)cc(=O)n2C2CC2)cc1 | – | inactive: -0.95% |
| CC(C)(C)n1cnc2cc(NC(=O)c3ccccc3)ccc21 | inconclusive: 14.1 µM [inhibitor, single point] | – |
| CCCn1c2c(c(O)c(C(=O)NCc3ccccc3)c1=O)CCCC2 | – | inactive: -6.23% |
| CC(C)N=C1SCC(C)(/C=N/O)S1 (stereo not drawn) | inconclusive: 2.31 µM [inhibitor, partial curve, poor fit] | – |
| CCOc1ccc(-n2c(SCc3nc(-c4cccs4)no3)nnc2-c2ccncc2)cc1 | inconclusive: 14.6 µM [inhibitor, single point] | – |
| CN(C)c1nnc(-c2ccc(Cl)cc2)o1 | – | inactive: 7.02% |
| O=C(CN1CCCC1)Nc1c2c(nc3ccccc13)N(Cc1ccccc1)CC2 | inconclusive: 20.6 µM [inhibitor, single point] | – |
| CCOc1ccc(/C=N/n2c(SC)nnc2-c2ccccc2)cc1OCC | inconclusive: 11.6 µM [inhibitor, single point] | – |
| CN(C)/C(=N\S(=O)(=O)c1ccc(Br)cc1)c1ccccc1 | inconclusive: 35.5 µM [activator, single point] | – |
| COc1ccc(NC(=O)c2cccc(N3C(=O)NC4CC3(C)Oc3ccccc34)c2)cc1 (stereo not drawn) | – | inactive: -20.7% |
| CCn1c(N2CCC(Cc3ccccc3)CC2)nc2c1c(=O)[nH]c(=O)n2C | inconclusive: 35.5 µM [inhibitor, single point] | – |
| CSc1nsc(SCC(=O)Nc2ccc(O)c(C(=O)O)c2)n1 | – | inactive: 1.76% [at 46.1 µM] |
| NC(=O)NCCN1CCN(c2ncc(C(F)(F)F)cc2Cl)CC1 | inconclusive: 3.55 µM [activator, full curve, poor fit] | – |
| CC(C)COc1ccc(C(=O)N/C(=C\c2cccc([N+](=O)[O-])c2)C(=O)O)cc1 | – | inactive: -7.4% [at 46.1 µM] |
| CC(C)NCC(O)COc1ccc2c(c1)CCC2 (stereo not drawn) | inconclusive: 25.1 µM [inhibitor, single point] | – |
| CC(C)n1cc(/C=C/c2cc[n+](C)cc2)c2ccccc21 | active: 2.51 µM | – |
